From the supplement of paper PMC9454738
Where “and” joins values, the source holds several entries; their conditions need not be identical. Identical values can stand only once. Some of the results follow. Repeats in this data set agree poorly, so a single value says little.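 Test systems: triple-negative MDA-MB-231 breast cancer cells and their brain-metastatic MDA-MB-231BRM derivative, each stably carrying empty vector, full-length GLI1 or truncated tGLI1. Viability after 48 h was read by CellTiter-Blue and expressed against 1% DMSO vehicle. A compound was tGLI1-selective if it lowered viability 20% more in tGLI1 cells than in vector and GLI1 cells.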

Tests used:
Assay in all cases: cell viability relative to vehicle (DMSO) control (fraction); higher = more viable cells (less growth inhibition)
Settings in all cases: treatment time 48 h
[1] = tested on: MDA-MB-231 GLI1
[2] = tested on: MDA-MB-231 Vector
[3] = tested on: MDA-MB-231 tGLI1
[4] = tested on: MDA-MB-231BRM GLI1
[5] = tested on: MDA-MB-231BRM Vector
[6] = tested on: MDA-MB-231BRM tGLI1

Structure (SMILES) | cell viability ([1]; 0.05 µM) | cell viability ([1]; 0.5 µM) | cell viability ([1]; 5 µM) | cell viability ([2]; 0.05 µM) | cell viability ([2]; 0.5 µM) | cell viability ([2]; 5 µM) | cell viability ([3]; 0.05 µM) | cell viability ([3]; 0.5 µM) | cell viability ([3]; 5 µM) | cell viability ([4]; 0.05 µM) | cell viability ([4]; 0.5 µM) | cell viability ([4]; 5 µM) | cell viability ([5]; 0.05 µM) | cell viability ([5]; 0.5 µM) | cell viability ([5]; 5 µM) | cell viability ([6]; 0.05 µM) | cell viability ([6]; 0.5 µM) | cell viability ([6]; 5 µM)
CNC(=O)c1nn(C)c2c1C(C)(C)Cc1cnc(Nc3ccc(N4CCN(C)CC4)cc3)nc1-2 | 1.02 | 0.71 | 0.101 | 1.1 | 0.778 | 0.216 | 1.37 | 0.726 | 0.147 | 0.983 | 0.999 | 0.868 | 0.919 | 0.965 | 0.814 | 0.998 | 1.05 | 0.777
Oc1c2ccccc2c2c3c(cccc13)N=N2 | 1.39 | 1.56 | 1.51 | 2.01 | 1.36 | 1.27 | 1.23 | 1.32 | 1.21 | 1.14 | 1.2 | 0.845 | 0.781 | 1.12 | 0.945 | 1 | 1.15 | 0.912
CNC(=O)Nc1ccc(-c2nc(N3CC4CCC(C3)O4)c3cnn(C4CCC5(CC4)OCCO5)c3n2)cc1 | 0.55 | 0.369 | 0.229 | 0.484 | 0.37 | 0.329 | 0.521 | 0.331 | 0.218 | 0.899 | 0.913 | 0.764 | 0.964 | 0.969 | 0.751 | 0.932 | 0.861 | 0.562
Cc1ccc(C(=O)Nc2cccc(C(F)(F)F)c2)cc1Nc1nc(-c2cccnc2)nc2c1cnn2C | 1.16 | 1.18 | 0.53 | 0.848 | 0.967 | 0.519 | 1.14 | 1.11 | 0.476 | 0.767 | 0.598 | 0.77 | 0.641 | 0.94 | 0.856 | 0.572 | 1.11 | 0.774
C[C@@H]1CCN(C(=O)CC#N)C[C@@H]1N(C)c1ncnc2[nH]ccc12 | 1.13 and 1.06 | 1.3 and 1.38 | 1.12 and 1 | 0.931 and 1.12 | 1.11 and 1.2 | 0.877 and 1.22 | 1.17 and 1.13 | 1.04 and 1.26 | 0.898 and 0.977 | 1.04 and 0.96 | 1.04 and 1.06 | 0.988 and 1.02 | 1.02 and 0.986 | 1.05 | 0.966 and 1.04 | 1.03 and 1.01 | 1.05 and 0.976 | 0.948 and 1.04
CCS(=O)(=O)Nc1ccc2c(c1)/C(=C(/Nc1ccc(CN3CCCCC3)cc1)c1ccccc1)C(=O)N2 [Hesperadin] | 0.762 | 0.492 | 0.431 | 0.701 | 0.416 | 0.311 | 0.754 | 0.492 | 0.462 | 0.414 | 1.16 | 0.827 | 0.633 | 1.04 | 0.941 | 0.958 | 0.944 | 0.811
Nc1ncnc2c1c(-c1cnc3[nH]ccc3c1)nn2C1CCCC1 | 1.07 | 0.433 | 0.0199 | 0.987 | 0.284 | 0.0403 | 1.33 | 0.437 | -0.0041 | 0.921 | 0.957 | 0.642 | 1.05 | 1 | 0.626 | 1.09 | 0.942 | 0.596
N#CCNC(=O)c1ccc(-c2ccnc(Nc3ccc(N4CCOCC4)cc3)n2)cc1 | 1.39 | 1.36 | 0.755 | 0.835 | 1.2 | 0.464 | 1.25 | 0.833 | 0.479 | 1.13 | 1.14 | 1.05 | 0.721 | 1.1 | 1.01 | 0.504 | 0.733 | 0.918
C[C@]12CC[C@@H]3c4ccc(O)cc4C[C@@H](CCCCCCCCC[S+]([O-])CCCC(F)(F)C(F)(F)F)[C@H]3[C@@H]1CC[C@@H]2O (stereo partly drawn) [Fulvestrant (Faslodex)] | 1.13 | 1.08 | 1.33 | 1.04 | 1.19 | 1.4 | 0.969 | 1.04 | 1.24 | 1.03 | 0.904 | 0.737 | 0.982 | 0.978 | 0.769 | 1.08 | 0.951 | 0.816
CC[C@]1(O)C[C@H]2CN(CCc3c([nH]c4ccccc34)[C@@](C(=O)OC)(c3cc4c(cc3OC)N(C=O)[C@H]3[C@@](O)(C(=O)OC)[C@H](OC(C)=O)[C@]5(CC)C=CCN6CC[C@]43[C@@H]65)C2)C1 [Vincristine] | -0.102 | -0.104 | -0.137 | -0.321 | -0.357 | -0.403 | -0.16 | -0.174 | -0.228 | 0.895 | 0.835 | 0.83 | 0.934 | 0.724 | 0.77 | 0.76 | 0.857 | 0.79
COc1cc2ncnc(Nc3cccc(Cl)c3)c2cc1OC [AG-1478 (Tyrphostin AG-1478)] | 1.33 | 1.28 | 1.1 | 1.23 | 1.25 | 0.356 | 1.37 | 1.18 | 0.926 | 0.961 | 0.981 | 0.824 | 1.08 | 1.02 | 0.836 | 1.06 | 1.02 | 0.869
Cc1cc(CS(=O)(=O)c2ccccc2)cc(OCc2ccc(CN3CCC[C@@H]3CO)cc2)c1 | 1.42 | 1.92 | 1.54 | 1.5 | 1.41 | 1.62 | 1.51 | 1.53 | 1.63 | 1.05 | 0.978 | 0.938 | 1.13 | 1.13 | 0.991 | 0.97 | 0.991 | 0.959
Fc1cc(-c2cccc3ncc(-c4cnn(C5CCNCC5)c4)nc23)cc(F)c1CN1CCOCC1 | 0.896 | 1 | 0.0438 | 1.02 | 1.16 | 0.344 | 1.14 | 1 | 0.234 | 1.05 | 0.972 | 1.01 | 1.06 | 0.958 | 0.948 | 1 | 1.01 | 0.854
CN1CC[C@H](c2c(O)cc(O)c3c(=O)cc(-c4ccccc4Cl)oc23)[C@H](O)C1 [Flavopiridol (Alvocidib)] | 0.261 | 0.229 | 0.217 | 0.57 | 0.249 | 0.254 | 0.23 | 0.189 | 0.171 | 1.2 | 1.19 | 0.953 | 1.19 | 1.07 | 0.971 | 0.968 | 0.6 | 0.855
COc1cc2nccc(Oc3ccc(NC(=O)C4(C(=O)Nc5ccc(F)cc5)CC4)cc3)c2cc1OC [XL-184 (Cabozantinib)] | 1.15 | 1.05 | 0.637 | 1.45 | 1.15 | 0.637 | 1.19 | 1 | 0.606 | 1.09 | 0.974 | 0.753 | 1.09 | 0.991 | 0.846 | 1.04 | 0.982 | 0.87
CC1(C)CNc2cc(NC(=O)c3cccnc3NCc3ccncc3)ccc21 [Motesanib Diphosphate (AMG-706)] | 1.28 | 1.54 | 0.93 | 0.9 | 0.91 | 0.752 | 0.842 | 1.41 | 1.07 | 0.972 | 0.968 | 0.958 | 0.879 | 0.879 | 0.919 | 0.96 | 0.934 | 0.946
